From article PMC11649915 come the findings set out here.

Protein sequences, listed by entry. Tags and fused reporters are not part of them.
UniProt Q13283: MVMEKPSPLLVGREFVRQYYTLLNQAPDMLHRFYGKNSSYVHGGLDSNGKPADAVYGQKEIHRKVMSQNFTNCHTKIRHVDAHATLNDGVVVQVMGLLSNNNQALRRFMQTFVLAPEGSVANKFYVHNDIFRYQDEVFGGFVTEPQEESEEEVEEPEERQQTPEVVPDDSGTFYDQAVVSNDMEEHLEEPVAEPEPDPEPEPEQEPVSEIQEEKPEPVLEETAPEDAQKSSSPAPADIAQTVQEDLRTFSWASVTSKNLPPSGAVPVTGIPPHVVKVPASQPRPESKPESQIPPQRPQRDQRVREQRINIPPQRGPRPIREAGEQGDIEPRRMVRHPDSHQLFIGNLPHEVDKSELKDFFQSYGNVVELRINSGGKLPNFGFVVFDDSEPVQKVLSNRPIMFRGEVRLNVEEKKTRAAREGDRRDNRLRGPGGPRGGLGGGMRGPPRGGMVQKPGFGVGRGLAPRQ

No constants are given. Whether binding was seen depends on the method and setting. In cells and extracts the contact can be indirect. Some binding calls cover weakened binding; strength is not graded here.

The target of the assay is GFP-tagged N protein of SARS-CoV (SARS-CoV) (UniProt P59595). The assay can be described thus: co-IP.

Consider “endogenous G3BP1 (from UniProt Q13283 1-466)”, for which the binding entry is recorded as “binds”.
